Reference: US20120207760A1
These are yes or no findings as the source states them, for the method shown. Some binding calls cover weakened binding; strength is not graded here.

The chains behind the UniProt entries cited, without tags or fusion partners.
UniProt P06821: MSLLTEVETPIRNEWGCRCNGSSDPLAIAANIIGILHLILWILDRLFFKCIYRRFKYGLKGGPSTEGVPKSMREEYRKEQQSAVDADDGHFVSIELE

Legend:
[1] = molecular target: M2 protein of A/Puerto Rico/8/34 (H1N1), on virus particles, infected MDCK cells or transfected cells (influenza A virus A/Puerto Rico/8/34 (H1N1)) (UniProt P06821); test: FMAT on MDCK cells infected with A/PR/8/32, crude supernatant (FIG. 10)
[2] = molecular target: M2 protein of A/Puerto Rico/8/34 (H1N1), on virus particles, infected MDCK cells or transfected cells (influenza A virus A/Puerto Rico/8/34 (H1N1)) (UniProt P06821); test: ELISA on PR8 virus, crude supernatant
[3] = molecular target: M2 protein of A/Puerto Rico/8/34 (H1N1), on virus particles, infected MDCK cells or transfected cells (influenza A virus A/Puerto Rico/8/34 (H1N1)) (UniProt P06821); test: ELISA on influenza virus, crude supernatant (FIG. 9)
[4] = molecular target: M2 protein of A/Puerto Rico/8/34 (H1N1), on virus particles, infected MDCK cells or transfected cells (influenza A virus A/Puerto Rico/8/34 (H1N1)) (UniProt P06821); test: binding to MDCK cells infected with PR8 virus (FIG. 10)

Measured: binding

B1: 21B15 (antibody, V domains shown)
VH: QVQLQESGPGLVKPSETLSLTCTVSGSSISNYYWSWIRQSPGKGLEWIGFIYYGGNTKYNPSLKSRVTISQDTSKSQVSLTMSSVTAAESAVYFCARASCSGGYCILDYWGQGTLVTVSS
VL: DIQVTQSPSSLSASVGDRVTITCRASQNIYKYLNWYQQRPGKAPKGLISAASGLQSGVPSRFSGSGSGTDFTLTITSLQPEDFATYYCQQSYSPPLTFGGGTRVDIK
binds: all assays above
